From patent publication CN109021107A
Results are given in words; binding and its absence hold for the method and conditions named. Binding calls can cover weak binding; strength is not graded here.

Biological target: recombinant monkey PD-L1 (monkey)
Test: ELISA, coated recombinant protein, antibody 1ug/ml, anti-human IgG-HRP

binding: binds
B1: HUL02 (antibody, human IgG1, kappa, N297A, V domains shown)
VH: EVQLQESGPGLVKPSQTLSLTCTVSGDSFSSGYWNWIRQHPGKGLEYIGYVSYTGSTYYIPSLKSRVTISRDTSKNQFSLKLSSVTAADTAVYYCAGYRDWLHGYFDYWGQGTTVTVSS
VL: DIQMTQSPSSLSASVGDRVTITCKASQNVMDNVAWYQQKPGKAPKRLIYSASYRFSGVPSRFSGSGSGTEFTLTISSLQPEDFATYYCQQYNGYPLTFGQGTKLEIKR
